Test results from patent US20090214663A1 (published 2009).
No constants are given. Whether binding was seen depends on the method and setting. Some binding calls cover weakened binding; strength is not graded here.

Protein sequences, listed by entry. Tags and fused reporters are not part of them. Residues count along the entry.
UniProt Q09143: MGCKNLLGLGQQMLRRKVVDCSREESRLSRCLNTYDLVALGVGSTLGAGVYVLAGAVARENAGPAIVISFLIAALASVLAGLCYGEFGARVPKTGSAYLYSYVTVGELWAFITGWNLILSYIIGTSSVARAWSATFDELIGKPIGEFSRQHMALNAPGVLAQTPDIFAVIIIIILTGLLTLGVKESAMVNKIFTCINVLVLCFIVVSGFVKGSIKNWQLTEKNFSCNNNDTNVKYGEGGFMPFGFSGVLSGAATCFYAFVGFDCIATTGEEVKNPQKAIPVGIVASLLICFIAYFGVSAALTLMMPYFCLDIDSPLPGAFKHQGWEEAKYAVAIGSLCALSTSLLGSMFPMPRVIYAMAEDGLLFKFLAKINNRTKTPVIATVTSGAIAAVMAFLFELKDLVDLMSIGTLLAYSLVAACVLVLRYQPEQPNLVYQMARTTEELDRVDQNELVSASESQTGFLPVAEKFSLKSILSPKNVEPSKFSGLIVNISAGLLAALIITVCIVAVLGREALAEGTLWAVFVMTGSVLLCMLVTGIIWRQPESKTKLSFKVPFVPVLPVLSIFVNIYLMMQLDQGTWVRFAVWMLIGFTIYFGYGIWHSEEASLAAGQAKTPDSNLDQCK
UniProt P03385, residues 34-649: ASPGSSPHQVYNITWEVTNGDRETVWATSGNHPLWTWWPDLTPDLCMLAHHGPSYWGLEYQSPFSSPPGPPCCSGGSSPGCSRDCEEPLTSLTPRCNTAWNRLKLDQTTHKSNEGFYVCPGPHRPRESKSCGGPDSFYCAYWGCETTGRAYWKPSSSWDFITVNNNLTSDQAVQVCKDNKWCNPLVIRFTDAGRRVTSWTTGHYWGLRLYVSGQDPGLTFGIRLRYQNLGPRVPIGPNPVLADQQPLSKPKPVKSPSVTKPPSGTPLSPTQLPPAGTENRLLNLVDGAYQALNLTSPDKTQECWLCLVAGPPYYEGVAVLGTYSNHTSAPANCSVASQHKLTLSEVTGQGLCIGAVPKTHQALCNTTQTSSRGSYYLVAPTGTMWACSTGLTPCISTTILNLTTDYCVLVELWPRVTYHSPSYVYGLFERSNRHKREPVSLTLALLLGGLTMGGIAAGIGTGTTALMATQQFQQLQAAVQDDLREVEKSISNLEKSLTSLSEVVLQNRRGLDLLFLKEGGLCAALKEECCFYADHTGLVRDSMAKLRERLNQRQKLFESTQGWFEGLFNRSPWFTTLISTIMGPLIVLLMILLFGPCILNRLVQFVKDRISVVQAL

How the values were obtained:
[1] = target: red fluorescent protein (mStrawberry)-tagged mCAT-1 receptor expressed on cells (mouse) (UniProt Q09143); test: confocal microscopy, blue fluorescent Mo-NP on cells expressing mStrawberry-tagged mCAT-1 and GFP-caveolin
[2] = target: mCAT-1 receptor expressed on HEK 293 cells (stable cell line) (mouse) (UniProt Q09143); test: fluorescence microscopy of Mo-NP on HEK 293 cells with or without mCAT-1

With “Moloney murine leukemia virus (Mo-MLV) envelope protein, in virus membranes coated onto 100 nm carboxylate-modified fluorescent nanoparticles (Mo-NP) (from UniProt P03385 34-649)” as the substance, how does the binding [1] read?
The binding was “binds”.

And the binding [2]?
Its binding is “binds”.
